Data reported in publication PMC4564143.

Key:
[1] = target: B. afzelii OspC A3 (B. afzelii) (UniProt Q0SL36); experiment: ELISA; competition ELISA, sequential versus premix format: plates coated with 100 ng per well of one of four OspC proteins; soluble DsbA-fused tick protein; mouse immune sera at 1:100 for detection or premixed; supplemented with cleared E. coli lysate; background with SaΔN59 subtracted; both purified
[2] = target: B. afzelii OspC YU (B. afzelii) (UniProt Q0SL36); experiment: as above

| Substance | binding [1] | binding [2] |
| --- | --- | --- |
| DsbA-fused Salp15 variant SaΔN59 (from UniProt Q95WZ4 60-135) (domain or fragment) | no binding | no binding |
| DsbA-fused wild-type Salp15 (from UniProt Q95WZ4 22-135) | binds | binds |

Results are given in words; binding and its absence hold for the method and conditions named. Binding can be weak; no strength is given.
